Results from article PMC12951568, “Identifying Structural Factors Governing the Photodynamic Activity of Phthalocyanines” (Journal of Medicinal Chemistry, 2026).
Some compounds share one wording; it may come from a single statement.

Tested on: HeLa cells
Test: Subcellular localization on HeLa cells (fluorescence microscopy)
Type: cell-based, human
Parameters: key to Subcellular localization (HeLa): Ly, lysosomes; Me, membrane; Mi, mitochondria
Details: for Subcellular localization (HeLa), in words: this work; for Subcellular localization (HeLa): 12 h incubation, t.w. = this work

Structure (SMILES) | Subcellular localization (HeLa), in words | Subcellular localization (HeLa)
O=C([O-])c1cc(Oc2cc3c(cc2Oc2cc(C(=O)[O-])cc(C(=O)[O-])c2)C2=Nc4c5ccccc5c5[n]4[Zn][n]4c(c6ccccc6c4=NC3=N2)=NC2=NC(=N5)c3ccccc32)cc(C(=O)[O-])c1.[Na+].[Na+].[Na+].[Na+] [A1Zn] | Cytoplasmic membrane localization (in addition to that of lysosomes) | 
O=C([O-])c1cc(C(=O)[O-])cc(-c2cc3c(cc2-c2cc(C(=O)[O-])cc(C(=O)[O-])c2)C2=Nc4c5ccccc5c5[n]4[Zn][n]4c(c6ccccc6c4=NC3=N2)=NC2=NC(=N5)c3ccccc32)c1.[Na+].[Na+].[Na+].[Na+] [A2Zn] | Cytoplasmic membrane localization (in addition to that of lysosomes) | 
O=C([O-])c1cc(Oc2cc3c(cc2Oc2cc(C(=O)[O-])cc(C(=O)[O-])c2)C2=Nc4c5cc(Oc6cc(C(=O)[O-])cc(C(=O)[O-])c6)c(Oc6cc(C(=O)[O-])cc(C(=O)[O-])c6)cc5c5[n]4[Zn][n]4c(c6cc(Oc7cc(C(=O)[O-])cc(C(=O)[O-])c7)c(Oc7cc(C(=O)[O-])cc(C(=O)[O-])c7)cc6c4=NC4=NC(=N5)c5cc(Oc6cc(C(=O)[O-])cc(C(=O)[O-])c6)c(Oc6cc(C(=O)[O-])cc(C(=O)[O-])c6)cc54)=NC3=N2)cc(C(=O)[O-])c1.[Na+].[Na+].[Na+].[Na+].[Na+].[Na+].[Na+].[Na+].[Na+].[Na+].[Na+].[Na+].[Na+].[Na+].[Na+].[Na+] [A3Zn] |  | Ly
O=C([O-])c1cc(C(=O)[O-])cc(-c2cc3c(cc2-c2cc(C(=O)[O-])cc(C(=O)[O-])c2)C2=Nc4c5cc(-c6cc(C(=O)[O-])cc(C(=O)[O-])c6)c(-c6cc(C(=O)[O-])cc(C(=O)[O-])c6)cc5c5[n]4[Zn][n]4c(c6cc(-c7cc(C(=O)[O-])cc(C(=O)[O-])c7)c(-c7cc(C(=O)[O-])cc(C(=O)[O-])c7)cc6c4=NC4=NC(=N5)c5cc(-c6cc(C(=O)[O-])cc(C(=O)[O-])c6)c(-c6cc(C(=O)[O-])cc(C(=O)[O-])c6)cc54)=NC3=N2)c1.[Na+].[Na+].[Na+].[Na+].[Na+].[Na+].[Na+].[Na+].[Na+].[Na+].[Na+].[Na+].[Na+].[Na+].[Na+].[Na+] [A4Zn] |  | Ly
O=C([O-])c1cc(C(=O)[O-])cc(-c2nc3c(nc2-c2cc(C(=O)[O-])cc(C(=O)[O-])c2)C2=Nc4c5nc(-c6cc(C(=O)[O-])cc(C(=O)[O-])c6)c(-c6cc(C(=O)[O-])cc(C(=O)[O-])c6)nc5c5[n]4[Zn][n]4c(c6nc(-c7cc(C(=O)[O-])cc(C(=O)[O-])c7)c(-c7cc(C(=O)[O-])cc(C(=O)[O-])c7)nc6c4=NC4=NC(=N5)c5nc(-c6cc(C(=O)[O-])cc(C(=O)[O-])c6)c(-c6cc(C(=O)[O-])cc(C(=O)[O-])c6)nc54)=NC3=N2)c1.[Na+].[Na+].[Na+].[Na+].[Na+].[Na+].[Na+].[Na+].[Na+].[Na+].[Na+].[Na+].[Na+].[Na+].[Na+].[Na+] [A5Zn] |  | Ly
O=S(=O)([O-])c1ccc(Oc2ccc3c(c2)C2=Cc4c5ccc(Oc6ccc(S(=O)(=O)[O-])c7cccnc67)cc5c5[n]4[Zn][n]4c(c6ccc(Oc7ccc(S(=O)(=O)[O-])c8cccnc78)cc6c4=CC3=N2)=CC2=NC(=C5)c3ccc(Oc4ccc(S(=O)(=O)[O-])c5cccnc45)cc32)c2ncccc12.[Na+].[Na+].[Na+].[Na+] [A6Zn] |  | Ly
O=S(=O)([O-])c1cc(S(=O)(=O)[O-])c2cc(Oc3cccc4c3C3=NC4=Nc4c5c(Oc6ccc7cc(S(=O)(=O)[O-])cc(S(=O)(=O)[O-])c7c6)cccc5c5[n]4[Zn][n]4c(c6cccc(Oc7ccc8cc(S(=O)(=O)[O-])cc(S(=O)(=O)[O-])c8c7)c6c4=NC4=NC(=N5)c5c(Oc6ccc7cc(S(=O)(=O)[O-])cc(S(=O)(=O)[O-])c7c6)cccc54)=N3)ccc2c1.[Na+].[Na+].[Na+].[Na+].[Na+].[Na+].[Na+].[Na+] [A7Zn] |  | Ly
O=S(=O)([O-])c1ccc(Oc2cccc3c2C2=Cc4c5cccc(Oc6ccc(S(=O)(=O)[O-])c7cccnc67)c5c5[n]4[Zn][n]4c(c6cccc(Oc7ccc(S(=O)(=O)[O-])c8cccnc78)c6c4=CC3=N2)=CC2=NC(=C5)c3cccc(Oc4ccc(S(=O)(=O)[O-])c5cccnc45)c32)c2ncccc12.[Na+].[Na+].[Na+].[Na+] [A8Zn] |  | Ly
O=S(=O)([O-])c1ccc2c(c1)-c1nc-2nc2[nH]c(nc3nc(nc4[nH]c(n1)c1ccccc41)-c1ccc(S(=O)(=O)[O-])cc1-3)c1ccc(S(=O)(=O)[O-])cc21.[Na+].[Na+].[Na+] [A9H] | Cytoplasmic membrane localization (in addition to that of lysosomes) | 
C[n+]1cccc(Oc2ccc3c(c2)C2=NC3=Nc3c4cc(Oc5ccc[n+](C)c5)ccc4c4[n]3[Zn][n]3c(c5ccc(Oc6ccc[n+](C)c6)cc5c3=NC3=NC(=N4)c4cc(Oc5ccc[n+](C)c5)ccc43)=N2)c1.[I-].[I-].[I-].[I-] [C5Zn-I] |  | Ly
C[n+]1cccc(Oc2ccc3c(c2)C2=NC3=Nc3c4cc(Oc5ccc[n+](C)c5)ccc4c4[n]3[Zn][n]3c(c5ccc(Oc6ccc[n+](C)c6)cc5c3=NC3=NC(=N4)c4cc(Oc5ccc[n+](C)c5)ccc43)=N2)c1.F[P-](F)(F)(F)(F)F.F[P-](F)(F)(F)(F)F.F[P-](F)(F)(F)(F)F.F[P-](F)(F)(F)(F)F [C5Zn-PF 6] |  | Ly
C[n+]1cccc(Oc2ccc3c(c2)C2=NC3=Nc3c4cc(Oc5ccc[n+](C)c5)ccc4c4[n]3[Zn][n]3c(c5ccc(Oc6ccc[n+](C)c6)cc5c3=NC3=NC(=N4)c4cc(Oc5ccc[n+](C)c5)ccc43)=N2)c1.O=S(=O)(O)O.O=S(=O)(O)O.O=S(=O)([O-])[O-].O=S(=O)([O-])[O-] [C5Zn-SO 4] |  | Ly
C[n+]1cccc(Oc2cc3c(cc2Oc2ccc[n+](C)c2)C2=Nc4c5cc(Oc6ccc[n+](C)c6)c(Oc6ccc[n+](C)c6)cc5c5[n]4[Zn][n]4c(c6cc(Oc7ccc[n+](C)c7)c(Oc7ccc[n+](C)c7)cc6c4=NC4=NC(=N5)c5cc(Oc6ccc[n+](C)c6)c(Oc6ccc[n+](C)c6)cc54)=NC3=N2)c1.[I-].[I-].[I-].[I-].[I-].[I-].[I-].[I-] [C6Zn] |  | Ly
CC[N+](CC)(CC)CCSc1cc2c(cc1SCC[N+](CC)(CC)CC)C1=Nc3c4cc(SCC[N+](CC)(CC)CC)c(SCC[N+](CC)(CC)CC)cc4c4[n]3[Zn][n]3c(c5cc(SCC[N+](CC)(CC)CC)c(SCC[N+](CC)(CC)CC)cc5c3=NC3=NC(=N4)c4cc(SCC[N+](CC)(CC)CC)c(SCC[N+](CC)(CC)CC)cc43)=NC2=N1.[I-].[I-].[I-].[I-].[I-].[I-].[I-].[I-] [C8Zn] |  | Ly
NCCc1ccc(Oc2cccc3c2C2=NC3=Nc3c4ccccc4c4[n]3[Zn][n]3c(c5ccccc5c3=N2)=NC2=NC(=N4)c3ccccc32)cc1 [C15Zn] |  | Ly
COCCOCCOCCOCCOc1ccc(OCCOCCOCCOCCOC)c2c1C1=NC2=Nc2c3ccccc3c3[n]2[Zn][n]2c(c4ccccc4c2=N1)=NC1=NC(=N3)c2ccccc21 [N1Zn] | exclusive mitochondrial localization | Mi
OCc1cc(CO)cc(OCCCCSC2=C(SCCCCOc3cc(CO)cc(CO)c3)C3=Nc4c5ccccc5c5[n]4[Mg][n]4c(c6ccccc6c4=NC4=NC(=N5)c5ccccc54)=NC2=N3)c1 [N2Mg] |  | Ly
Cc1cc(OCc2cn(CCOCCOCCO)nn2)c(Oc2cc3c(cc2Oc2c(OCc4cn(CCOCCOCCO)nn4)cc(C)cc2OCc2cn(CCOCCOCCO)nn2)C2=Nc4c5ccccc5c5[n]4[Zn][n]4c(c6ccccc6c4=NC3=N2)=NC2=NC(=N5)c3ccccc32)c(OCc2cn(CCOCCOCCO)nn2)c1 [N3Zn] |  | Ly
Cc1cc(OCc2cn(CCO[C@@H]3O[C@H](CO)[C@@H](O)[C@H](O)[C@H]3O)nn2)c(Oc2cc3c(cc2Oc2c(OCc4cn(CCO[C@@H]5O[C@H](CO)[C@@H](O)[C@H](O)[C@H]5O)nn4)cc(C)cc2OCc2cn(CCO[C@@H]4O[C@H](CO)[C@@H](O)[C@H](O)[C@H]4O)nn2)C2=Nc4c5ccccc5c5[n]4[Zn][n]4c(c6ccccc6c4=NC3=N2)=NC2=NC(=N5)c3ccccc32)c(OCc2cn(CCO[C@@H]3O[C@H](CO)[C@@H](O)[C@H](O)[C@H]3O)nn2)c1 [N4Zn] |  | Ly
Cc1cc(OCc2cn(CCOCCOCCO)nn2)c(Oc2cc3c(cc2Oc2c(OCc4cn(CCOCCOCCO)nn4)cc(C)cc2OCc2cn(CCOCCOCCO)nn2)C2=Nc4c5cc(Oc6c(OCc7cn(CCOCCOCCO)nn7)cc(C)cc6OCc6cn(CCOCCOCCO)nn6)c(Oc6c(OCc7cn(CCOCCOCCO)nn7)cc(C)cc6OCc6cn(CCOCCOCCO)nn6)cc5c5[n]4[Zn][n]4c(c6cc(Oc7c(OCc8cn(CCOCCOCCO)nn8)cc(C)cc7OCc7cn(CCOCCOCCO)nn7)c(Oc7c(OCc8cn(CCOCCOCCO)nn8)cc(C)cc7OCc7cn(CCOCCOCCO)nn7)cc6c4=NC4=NC(=N5)c5cc(Oc6c(OCc7cn(CCOCCOCCO)nn7)cc(C)cc6OCc6cn(CCOCCOCCO)nn6)c(Oc6c(OCc7cn(CCOCCOCCO)nn7)cc(C)cc6OCc6cn(CCOCCOCCO)nn6)cc54)=NC3=N2)c(OCc2cn(CCOCCOCCO)nn2)c1 [N6Zn] |  | Ly
Cc1cc(OCc2cn(CCOCCOCCO)nn2)c(Oc2nc3c(nc2Oc2c(OCc4cn(CCOCCOCCO)nn4)cc(C)cc2OCc2cn(CCOCCOCCO)nn2)C2=Nc4c5nc(Oc6c(OCc7cn(CCOCCOCCO)nn7)cc(C)cc6OCc6cn(CCOCCOCCO)nn6)c(Oc6c(OCc7cn(CCOCCOCCO)nn7)cc(C)cc6OCc6cn(CCOCCOCCO)nn6)nc5c5[n]4[Zn][n]4c(c6nc(Oc7c(OCc8cn(CCOCCOCCO)nn8)cc(C)cc7OCc7cn(CCOCCOCCO)nn7)c(Oc7c(OCc8cn(CCOCCOCCO)nn8)cc(C)cc7OCc7cn(CCOCCOCCO)nn7)nc6c4=NC4=NC(=N5)c5nc(Oc6c(OCc7cn(CCOCCOCCO)nn7)cc(C)cc6OCc6cn(CCOCCOCCO)nn6)c(Oc6c(OCc7cn(CCOCCOCCO)nn7)cc(C)cc6OCc6cn(CCOCCOCCO)nn6)nc54)=NC3=N2)c(OCc2cn(CCOCCOCCO)nn2)c1 [N7Zn] |  | Ly
